Literature values, collected in patent US20080255115A1, “THIAZOLIDINEDIONE DERIVATIVES AS PI3 KINASE INHIBITORS” (priority 2007, published 2008).

Amino acid sequences for entries named in this document (tags omitted).
UniProt P68400, whole entry: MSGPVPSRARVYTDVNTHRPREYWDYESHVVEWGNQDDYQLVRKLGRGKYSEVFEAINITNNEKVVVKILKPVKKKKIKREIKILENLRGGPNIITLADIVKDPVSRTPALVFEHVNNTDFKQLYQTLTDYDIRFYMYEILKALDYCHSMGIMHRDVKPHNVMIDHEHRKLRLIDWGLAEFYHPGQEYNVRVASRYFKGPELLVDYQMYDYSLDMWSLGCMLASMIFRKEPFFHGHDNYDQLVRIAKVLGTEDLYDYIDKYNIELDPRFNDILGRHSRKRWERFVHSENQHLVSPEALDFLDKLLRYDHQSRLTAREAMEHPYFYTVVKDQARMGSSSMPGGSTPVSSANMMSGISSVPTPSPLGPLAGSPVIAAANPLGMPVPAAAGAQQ

How the values were obtained:
Class I PI3-kinases = conditions: LY294002, Fruman et al. 1998; read-out: IC50 against each of these PI3-kinases (Class I); cited from earlier work
CK2 protein kinase = CK2 protein kinase (Homo sapiens, UniProt P68400); conditions: LY294002, background section; cited from earlier work

**Q.** Which IC50 (Class I PI3-kinases) does the source give for `O=c1cc(N2CCOCC2)oc2c(-c3ccccc3)cccc12` [LY294002] here?
**A.** 15 to 20 µM

**Q.** And the IC50 (CK2 protein kinase)?
**A.** 5 to 10 µM
